Values from PubChem BioAssay AID1259308 (NCATS, 2017)

Purpose: 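Knock-downs that increase output of a recombinant reporter protein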 (primary screen)
System: human HEK293 embryonic kidney cells stably expressing firefly luciferase (HEK-CMV-Luc2-Hygro)
Reagents: single siRNA against human genes, 0.8 pmol siRNA per well
Duration: 72 h
Measurement: 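Reporter luminescence and viable-cell signal on separate replicate plates, given as percent of non-targeting control and median/MAD z-scores, plus per-cell luciferase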
Scale: total luciferase, z-score and total luciferase, % of control: higher = more reporter protein produced
Active means: 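Active when the median/MAD z-score for overall luciferase is greater than 3; a gene was taken forward for validation with new siRNAs if at least two of its three siRNAs passed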
Meaning of the calls: active = raised luciferase; inactive = no rise
In all, the deposit lists about 59,000 reagents; shown is a part drawn at random. Over the whole deposit, about 1,510 (2.6%) were called active. 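Calls use total luciferase alone and ignore viability, so some active siRNAs may act by altering cell number.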 Reagents against one gene are numbered here. Not all columns of the deposit are shown. No sequences are given here.

With ACVR2A (activin A receptor type 2A) #1, what was measured?
total luciferase, z-score: -0.693; total luciferase, % of control: 68.1; Call: inactive

What did the screen give for ACVR2A (activin A receptor type 2A) #2?
total luciferase, z-score: -1; total luciferase, % of control: 62; Call: inactive

How did the screen score ACVR2A (activin A receptor type 2A) #3?
total luciferase, z-score: -2.27; total luciferase, % of control: 36.8; Call: inactive

With HPS1 (HPS1 biogenesis of lysosomal organelles complex 3 subunit 1) #1, what was measured?
total luciferase, z-score: 0.0207; total luciferase, % of control: 82.3; Call: inactive

For HPS1 (HPS1 biogenesis of lysosomal organelles complex 3 subunit 1) #2, what does the deposit list?
total luciferase, z-score: -0.0291; total luciferase, % of control: 81.3; Call: inactive

With HPS1 (HPS1 biogenesis of lysosomal organelles complex 3 subunit 1) #3, how do the results read?
total luciferase, z-score: -0.57; total luciferase, % of control: 70.6; Call: inactive

What is on record for REXO5 (RNA exonuclease 5) #1?
total luciferase, z-score: 3.35; total luciferase, % of control: 148; Call: active

How did the screen score REXO5 (RNA exonuclease 5) #2?
total luciferase, z-score: -0.215; total luciferase, % of control: 77.6; Call: inactive

For REXO5 (RNA exonuclease 5) #3, how do the results read?
total luciferase, z-score: 0.131; total luciferase, % of control: 84.5; Call: inactive

How did the screen score COL11A2 (collagen type XI alpha 2 chain) #1?
total luciferase, z-score: -2.24; total luciferase, % of control: 37.3; Call: inactive

What is on record for COL11A2 (collagen type XI alpha 2 chain) #2?
total luciferase, z-score: -0.488; total luciferase, % of control: 72.2; Call: inactive

What did the screen give for COL11A2 (collagen type XI alpha 2 chain) #3?
total luciferase, z-score: 0.0557; total luciferase, % of control: 83; Call: inactive
